According to PubChem BioAssay (NCATS):
The inconclusive results got no clear call from the source; some entries with a clear call stand among them for comparison. For part of these data: A potency beside an inconclusive call is a rough fit, not a confirmed value. For part of these data: A note “side channel” means that the fit belongs to a control or component signal, not to the main read-out. Activity calls are given as the source filed them. Unless noted, calls come from the whole dose curve; as a rule, active = well fitted curve in the direction sought with a large enough effect; inconclusive = small, poorly fitted or top-dose-only effect, or another doubt; inactive = no such curve, though single readings can be large; an effect the other way counts as inactive or inconclusive.

Chains of the proteins cited; added tags and fusions are not shown. Lines headed by an entry give the natural chain unless they say otherwise; changes in a name come on top.
UniProt Q14191, whole entry, looked up: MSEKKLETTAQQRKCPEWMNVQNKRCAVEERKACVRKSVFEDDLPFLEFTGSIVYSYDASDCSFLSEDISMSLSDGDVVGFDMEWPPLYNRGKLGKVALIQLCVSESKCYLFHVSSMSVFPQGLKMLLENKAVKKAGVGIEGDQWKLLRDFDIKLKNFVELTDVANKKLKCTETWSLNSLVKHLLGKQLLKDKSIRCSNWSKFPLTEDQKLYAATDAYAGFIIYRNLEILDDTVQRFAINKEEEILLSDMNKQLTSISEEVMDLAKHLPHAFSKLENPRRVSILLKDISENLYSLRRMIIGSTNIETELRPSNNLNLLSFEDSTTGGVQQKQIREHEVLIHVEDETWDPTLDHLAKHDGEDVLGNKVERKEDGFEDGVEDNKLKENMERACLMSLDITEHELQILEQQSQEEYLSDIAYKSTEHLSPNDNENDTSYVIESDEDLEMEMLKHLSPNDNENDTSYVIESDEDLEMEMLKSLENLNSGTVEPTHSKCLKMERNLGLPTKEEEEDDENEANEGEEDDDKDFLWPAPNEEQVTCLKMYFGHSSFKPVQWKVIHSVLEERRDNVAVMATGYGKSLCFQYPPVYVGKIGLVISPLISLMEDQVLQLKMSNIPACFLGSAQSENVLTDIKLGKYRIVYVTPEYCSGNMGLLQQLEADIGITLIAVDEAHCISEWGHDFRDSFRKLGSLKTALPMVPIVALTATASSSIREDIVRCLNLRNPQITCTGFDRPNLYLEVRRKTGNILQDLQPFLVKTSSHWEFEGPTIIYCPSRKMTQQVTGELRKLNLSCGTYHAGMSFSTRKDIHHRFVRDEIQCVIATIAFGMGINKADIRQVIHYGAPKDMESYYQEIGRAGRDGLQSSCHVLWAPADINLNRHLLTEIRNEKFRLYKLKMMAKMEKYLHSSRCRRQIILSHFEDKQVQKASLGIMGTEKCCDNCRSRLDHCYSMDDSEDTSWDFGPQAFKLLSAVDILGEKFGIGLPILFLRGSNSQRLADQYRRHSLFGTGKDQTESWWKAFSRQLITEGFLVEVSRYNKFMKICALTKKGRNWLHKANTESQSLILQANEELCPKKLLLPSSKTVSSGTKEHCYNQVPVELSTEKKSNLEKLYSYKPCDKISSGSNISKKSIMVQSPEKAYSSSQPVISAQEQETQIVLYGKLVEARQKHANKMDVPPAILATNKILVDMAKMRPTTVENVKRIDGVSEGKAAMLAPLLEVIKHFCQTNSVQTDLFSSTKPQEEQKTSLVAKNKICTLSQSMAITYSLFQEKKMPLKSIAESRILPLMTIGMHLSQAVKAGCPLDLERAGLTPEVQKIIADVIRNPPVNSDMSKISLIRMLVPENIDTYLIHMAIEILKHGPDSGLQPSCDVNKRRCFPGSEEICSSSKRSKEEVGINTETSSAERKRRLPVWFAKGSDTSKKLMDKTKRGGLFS
UniProt Q9Y253: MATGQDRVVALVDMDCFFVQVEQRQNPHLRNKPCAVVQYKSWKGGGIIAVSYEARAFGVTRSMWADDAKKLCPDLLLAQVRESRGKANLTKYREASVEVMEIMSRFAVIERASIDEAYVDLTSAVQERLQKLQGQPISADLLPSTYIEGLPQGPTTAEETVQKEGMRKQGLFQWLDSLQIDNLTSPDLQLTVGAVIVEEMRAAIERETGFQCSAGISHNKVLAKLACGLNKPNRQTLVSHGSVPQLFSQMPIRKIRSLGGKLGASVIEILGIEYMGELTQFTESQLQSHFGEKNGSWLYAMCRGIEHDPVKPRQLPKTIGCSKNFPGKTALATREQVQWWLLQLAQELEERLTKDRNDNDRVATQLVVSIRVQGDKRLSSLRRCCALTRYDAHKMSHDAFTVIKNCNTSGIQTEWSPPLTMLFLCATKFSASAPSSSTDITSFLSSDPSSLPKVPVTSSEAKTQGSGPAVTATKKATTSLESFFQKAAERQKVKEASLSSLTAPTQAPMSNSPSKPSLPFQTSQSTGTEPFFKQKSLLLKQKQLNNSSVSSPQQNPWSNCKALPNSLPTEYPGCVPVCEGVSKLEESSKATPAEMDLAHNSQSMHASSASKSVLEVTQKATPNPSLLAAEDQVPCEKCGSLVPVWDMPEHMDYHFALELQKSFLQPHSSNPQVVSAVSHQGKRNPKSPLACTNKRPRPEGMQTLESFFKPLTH
UniProt Q8WZA2: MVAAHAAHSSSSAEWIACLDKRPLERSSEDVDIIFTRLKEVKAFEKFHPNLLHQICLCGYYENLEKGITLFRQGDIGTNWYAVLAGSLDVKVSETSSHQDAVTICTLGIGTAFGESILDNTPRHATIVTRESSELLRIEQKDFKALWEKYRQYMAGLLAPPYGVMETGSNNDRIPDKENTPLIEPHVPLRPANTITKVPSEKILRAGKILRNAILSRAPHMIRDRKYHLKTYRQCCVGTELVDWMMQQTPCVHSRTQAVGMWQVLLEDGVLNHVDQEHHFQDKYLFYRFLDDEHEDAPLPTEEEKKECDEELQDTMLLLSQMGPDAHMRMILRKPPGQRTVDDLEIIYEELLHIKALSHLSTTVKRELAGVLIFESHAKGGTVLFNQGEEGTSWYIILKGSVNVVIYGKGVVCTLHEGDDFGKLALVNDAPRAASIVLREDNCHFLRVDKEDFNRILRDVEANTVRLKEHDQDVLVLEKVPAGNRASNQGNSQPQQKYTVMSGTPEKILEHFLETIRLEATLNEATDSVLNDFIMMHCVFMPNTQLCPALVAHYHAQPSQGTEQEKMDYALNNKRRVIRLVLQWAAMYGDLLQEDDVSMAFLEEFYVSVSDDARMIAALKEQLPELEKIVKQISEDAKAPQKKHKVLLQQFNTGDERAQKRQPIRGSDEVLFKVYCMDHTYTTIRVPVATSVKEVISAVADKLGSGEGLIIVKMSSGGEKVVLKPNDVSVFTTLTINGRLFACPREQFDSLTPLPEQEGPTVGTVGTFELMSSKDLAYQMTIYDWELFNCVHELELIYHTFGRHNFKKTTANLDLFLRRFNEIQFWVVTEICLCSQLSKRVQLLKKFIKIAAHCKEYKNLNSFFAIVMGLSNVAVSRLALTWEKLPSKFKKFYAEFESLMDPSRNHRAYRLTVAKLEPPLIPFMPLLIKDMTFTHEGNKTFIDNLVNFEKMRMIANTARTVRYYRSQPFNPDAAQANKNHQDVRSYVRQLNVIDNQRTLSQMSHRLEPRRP
UniProt O94782: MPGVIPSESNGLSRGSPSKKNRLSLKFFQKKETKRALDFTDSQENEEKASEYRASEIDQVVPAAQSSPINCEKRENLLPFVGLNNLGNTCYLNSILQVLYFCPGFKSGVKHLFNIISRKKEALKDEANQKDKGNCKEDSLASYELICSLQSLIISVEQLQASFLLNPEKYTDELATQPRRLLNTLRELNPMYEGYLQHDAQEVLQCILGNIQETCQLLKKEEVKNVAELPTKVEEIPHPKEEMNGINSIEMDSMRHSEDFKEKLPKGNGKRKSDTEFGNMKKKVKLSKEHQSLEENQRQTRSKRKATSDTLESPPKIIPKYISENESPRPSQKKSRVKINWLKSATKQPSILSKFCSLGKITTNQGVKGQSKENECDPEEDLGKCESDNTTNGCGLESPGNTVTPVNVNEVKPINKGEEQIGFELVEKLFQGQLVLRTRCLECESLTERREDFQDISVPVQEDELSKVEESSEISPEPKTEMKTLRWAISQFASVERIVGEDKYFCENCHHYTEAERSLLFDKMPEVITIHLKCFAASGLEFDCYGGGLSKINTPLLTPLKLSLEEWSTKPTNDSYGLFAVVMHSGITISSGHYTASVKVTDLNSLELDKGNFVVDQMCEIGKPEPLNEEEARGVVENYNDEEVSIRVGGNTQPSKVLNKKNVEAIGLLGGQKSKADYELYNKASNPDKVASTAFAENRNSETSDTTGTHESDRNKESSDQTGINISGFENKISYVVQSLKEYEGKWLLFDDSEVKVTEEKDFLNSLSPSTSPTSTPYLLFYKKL
UniProt Q07343: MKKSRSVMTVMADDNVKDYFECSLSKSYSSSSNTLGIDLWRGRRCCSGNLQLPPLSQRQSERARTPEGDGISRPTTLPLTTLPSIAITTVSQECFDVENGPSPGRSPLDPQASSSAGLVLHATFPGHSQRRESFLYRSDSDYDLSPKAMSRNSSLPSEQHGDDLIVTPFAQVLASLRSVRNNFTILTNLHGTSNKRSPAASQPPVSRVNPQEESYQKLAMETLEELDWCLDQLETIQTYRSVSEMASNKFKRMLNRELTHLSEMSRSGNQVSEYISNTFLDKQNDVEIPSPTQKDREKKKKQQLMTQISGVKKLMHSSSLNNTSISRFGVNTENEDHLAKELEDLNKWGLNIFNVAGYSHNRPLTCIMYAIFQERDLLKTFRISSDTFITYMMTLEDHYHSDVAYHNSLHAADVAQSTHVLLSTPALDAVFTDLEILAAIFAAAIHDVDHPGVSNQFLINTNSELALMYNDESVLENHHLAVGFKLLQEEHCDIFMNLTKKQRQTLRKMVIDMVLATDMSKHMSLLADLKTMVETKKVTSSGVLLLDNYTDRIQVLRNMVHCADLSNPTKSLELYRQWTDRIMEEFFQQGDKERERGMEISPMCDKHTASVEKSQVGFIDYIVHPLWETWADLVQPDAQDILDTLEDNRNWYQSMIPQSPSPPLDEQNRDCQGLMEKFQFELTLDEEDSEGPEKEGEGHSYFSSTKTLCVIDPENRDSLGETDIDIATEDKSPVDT
UniProt Q9HAZ1: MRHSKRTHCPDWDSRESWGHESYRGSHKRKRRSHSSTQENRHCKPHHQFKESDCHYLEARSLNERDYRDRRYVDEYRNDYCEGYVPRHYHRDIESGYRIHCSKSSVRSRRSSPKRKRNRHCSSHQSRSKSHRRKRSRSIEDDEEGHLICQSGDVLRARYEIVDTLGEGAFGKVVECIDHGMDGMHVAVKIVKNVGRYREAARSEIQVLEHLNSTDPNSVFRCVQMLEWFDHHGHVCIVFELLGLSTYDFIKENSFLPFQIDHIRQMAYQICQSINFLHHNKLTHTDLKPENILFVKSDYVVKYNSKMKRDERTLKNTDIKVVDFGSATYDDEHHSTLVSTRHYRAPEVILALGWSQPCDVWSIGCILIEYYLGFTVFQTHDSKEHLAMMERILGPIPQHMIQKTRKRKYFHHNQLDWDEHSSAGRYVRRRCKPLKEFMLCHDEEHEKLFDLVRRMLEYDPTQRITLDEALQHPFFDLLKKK

Legend:
[1] = biological target: Bifunctional 3'-5' exonuclease/ATP-dependent helicase WRN (Homo sapiens) (UniProt Q14191); assay: qHTS for Inhibitors of WRN Helicase: Confirmatory Assay for Cherry-picked Compounds. (AID 720497); note: potency is the fitted concentration of half-maximal effect; nearly all actives have a fitted effect of over 65% in size
Procedure, shortened: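 Kinetic fluorescence helicase read-out (525 nm excitation, 598 nm emission) on a forked duplex substrate at 100 nM with 2 mM ATP. Enzyme: 20 nM WRN, exposed to compound for 15 min at room temperature. Responses normalized to buffer-only and positive-control wells.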

[2] = biological target: DNA polymerase eta (Homo sapiens) (UniProt Q9Y253); assay: qHTS for Inhibitors of Polymerase Eta: Confirmatory Assay for Cherry-picked Compounds (AID 720502); settings: Pol eta primer extension, TAMRA/BHQ fluorescence, 10 min; note: potency is the fitted concentration of half-maximal effect
Procedure, shortened: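 Strand-displacement fluorescence (525 nm excitation, 598 nm emission) was read kinetically at 0 and 10 min after adding 50 nM final TAMRA-reporter/BHQ-2-template substrate. Beforehand, 10 nM Pol eta had been exposed to compound for 15 min at room temperature.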

[3] = biological target: Rap guanine nucleotide exchange factor 3 (Homo sapiens) (UniProt O95398); assay: Confirmatory qHTS for antagonist of cAMP-regulated guanine nucleotide exchange factor 3 (EPAC1) (AID 1645880); settings: EPAC1 Rap1B-BODIPY-GDP exchange, fluorescence; activity, negative = inhibition: at 115 µM (top of the series); note: nearly all actives have a fitted effect of over 55% in size; note: potency is the fitted concentration of half-maximal effect;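 for activity, negative = inhibition: plate controls were DMSO only for no effect and full effect of the ATA control for full effect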
Procedure, shortened: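 Nucleotide exchange uses 100 nM EPAC1, 250 nM RAP1B-BODIPY-GDP and 50 uM GDP, with compounds in a concentration-titration series. After 5 min at room temperature, fluorescence (480 nm ex/540 nm em) is read every 5 min for 30 min. Data are normalized to control ATA and DMSO.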

[4] = biological target: Rap guanine nucleotide exchange factor 4 (Homo sapiens) (UniProt Q8WZA2); assay: Confirmatory qHTS for agonist of cAMP-regulated guanine nucleotide exchange factor 4 (EPAC2) (AID 1645884); settings: EPAC2 GEF activity, Rap1B-BODIPY-GDP fluorescence; activation: at 154 µM (top of the series), percent relative to cAMP agonist control;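 note: nucleotide exchange releases bodipy-GDP from Rap1 and this lowers its fluorescence; nearly all actives have a fitted effect of over 65% in size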; note: potency is the fitted concentration of half-maximal effect
[5] = biological target: Rap guanine nucleotide exchange factor 4 (Homo sapiens) (UniProt Q8WZA2); assay: Confirmatory qHTS for antagonist of cAMP-regulated guanine nucleotide exchange factor 4 (EPAC2) (AID 1645885); settings: activity change, negative = inhibition: at 12.7 µM (top of the series) unless noted; note: nearly all actives have a fitted effect of over 25% in size; note: potency is the fitted concentration of half-maximal effect; for activity change, negative = inhibition: % is set by controls: 0 for no effect and ±100 for the full control effect
[6] = biological target: Ubiquitin carboxyl-terminal hydrolase 1 (Homo sapiens) (UniProt O94782); assay: Inhibitors of USP1/UAF1: Pilot qHTS (AID 504865); note: potency is the fitted concentration of half-maximal effect; nearly all actives have a fitted effect of over 35% in size
Procedure, shortened: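 Deubiquitinase activity followed as kinetic rhodamine fluorescence release from 150 nM Ub-Rho. 1 nM USP1/UAF1 with compound, after 15 min room-temperature preincubation, in HEPES pH 7.8 buffer containing TCEP, EDTA, BSA and Tween-20.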

[7] = biological target: Rap guanine nucleotide exchange factor 3 (Homo sapiens) (UniProt O95398); assay: Counterscreen qHTS for agonist of cAMP-regulated guanine nucleotide exchange factor 3 (EPAC1) (AID 1645889); settings: EPAC1 Rap1B-BODIPY-GDP exchange, fluorescence; activation: at 154 µM (top of the series) unless noted; note: nearly all actives have a fitted effect of over 40% in size; note: potency is the fitted concentration of half-maximal effect; for activation: % of control where 0% means no effect
Procedure, shortened: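 Measured: fluorescence of BODIPY-GDP bound to Rap1B, which falls as exchange proceeds. Conditions include 50 uM competing GDP, 5 and 30 min reads, and a later cAMP challenge for antagonist detection.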

[8] = AP1 Signaling Pathway (AID 357; active = well fitted curve in either direction with a large enough effect, not every such curve was filed as active; inconclusive = small, poorly fitted or top-dose-only effect, or another doubt;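 note: ME-180 reporter cells stimulated with EGF at its EC50 level; % is set by controls: 0 for no effect and ±100 for the full control effect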); settings: ME-180 AP-1-bla reporter, EGF-induced, beta-lactamase ratio, 5 h; at 7.69 µM (top of the series) unless noted
Procedure, shortened: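 Titration-series screen for positive or negative modulators of EC50 EGF-induced signaling in ME-180 cells carrying an AP-1-driven beta-lactamase reporter. After 5 hours at 37 degrees Celsius, CCF4 460nm/530nm emission ratio gave %Activity; AC50 values derived.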

[9] = NFAT Signaling Pathway (AID 444; active = well fitted curve in either direction with a large enough effect, not every such curve was filed as active; inconclusive = small, poorly fitted or top-dose-only effect, or another doubt;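 note: carbachol stimulus at about its EC50 of 1 µM final; % is set by controls: 0 for no effect and ±100 for the full control effect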); settings: Jurkat NFAT-bla M1, carbachol, beta-lactamase ratio, 5 h; at 7.69 µM (top of the series) unless noted
Procedure, shortened: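 Jurkat cells carrying an NFAT-driven β-lactamase reporter and co-transfected muscarinic M1 receptor were treated with compound plus carbachol (1 uM final, an EC50 level) for 5 h at 37 °C. CCF4 loading followed for 1 h at RT; 460/530 nm ratio gave %activity.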

[10] = Stat Signaling Pathway (AID 446; active = well fitted curve in either direction with a large enough effect, not every such curve was filed as active; inconclusive = small, poorly fitted or top-dose-only effect, or another doubt;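 note: ME-180 cervical cancer cells given 40 pM IL-6 alongside compound; SIE-controlled beta-lactamase reporter measured as 460/530 nm FRET emission ratio; % is set by controls: 0 for no effect and ±100 for the full control effect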); settings: ME-180 SIE beta-lactamase reporter, IL-6 stimulated, 5 h; at 7.69 µM (top of the series) unless noted
Procedure, shortened: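 IL-6/STAT signaling read in ME-180 cells via an SIE beta-lactamase reporter. Stimulus was 40 pM IL-6 (its AC50) for 5 hrs, so both activation and inhibition register.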

[11] = qHTS Assay for Identification of Small Molecule Agonists for Hypoxia Response Element Signaling Pathway (AID 914; active = well fitted activation curve with a large enough effect in the signal ratio, with a control signal flat, not every such curve was filed as active; inconclusive = small, poorly fitted or top-dose-only effect, or effect the other way, or a change in a side signal; the % refers to the signal ratio; note: potency is the fitted concentration of half-maximal effect; for activation: % of control where 0% means no effect); settings: ME-180 (cervical carcinoma) HRE-bla reporter, beta-lactamase ratio, CoCl2, 17 h; activation: stronger effect = higher value
Procedure, shortened: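 HRE-bla ME-180 cells, overnight plating in Opti-MEM with 0.5% dialyzed FBS; cpd titration + EC50 CoCl2, 17 h, 37 degrees Celsius; CCF4 2.5 h RT; 460/530 nm ratio; AC50.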

[12] = biological target: 3',5'-cyclic-AMP phosphodiesterase 4B (Homo sapiens) (UniProt Q07343); assay: qHTS Assay for Inhibitors of PDE-IV (AID 607; active = well fitted activation curve with a large enough effect in the main read-out, with a control signal flat, not every such curve was filed as active; inconclusive = small, poorly fitted or top-dose-only effect, or effect the other way, or a change in a side signal; note: potency is the fitted concentration of half-maximal effect); settings: HEK293 ACTOne CNG channel cells, membrane potential fluorescence; activation (PDE inhibition): at 22.9 µM (top of the series)
Procedure, shortened: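 Live HEK293 cells with a modified cyclic nucleotide-gated (CNG) channel report intracellular cAMP via membrane-potential dye fluorescence (ex 535/em 590 nm). Endogenous PDE-IV was targeted. Compounds were tested at up to 22.9 uM final; RO 20-1724 100 uM served as control.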

[13] = biological target: Dual specificity protein kinase CLK4 (Homo sapiens) (UniProt Q9HAZ1); assay: qHTS Assay for Inhibitors of CDC-like Kinase 4 (ADP-FP Assay) (AID 1795); note: potency is the fitted concentration of half-maximal effect; nearly all actives have a fitted effect of over 60% in size
Procedure, shortened: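 Kinase activity was measured as ADP production using Transcreener orange tracer (4 nM) and ADP antibody (1 ug/mL) fluorescence polarization, with ADP calculated from a calibration curve. The 1 h reaction contained 6.25 nM Clk4, 1 uM ATP and 100 uM RS peptide at pH 7.5 with Mg2+.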

[14] = qHTS for Inhibitors of WRN Helicase: Thiazole Orange DNA Binding Counterscreen (AID 720499);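 note: drop in dye fluorescence marks compound binding to DNA; potency is the fitted concentration of half-maximal effect; nearly all actives have a fitted effect of over 60% in size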
Procedure, shortened: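 Readout: ThO fluorescence, ex 480 nm/em 530 nm. Mix: 50 nM unlabeled DNA, 100 nM ThO. Compounds pintooled in, 15 min RT before reading.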

## O=C1COc2ccc(C(=O)COC(=O)c3ccc4ccccc4n3)cc2N1
[1]
  Potency: active: 13.6 µM
[2]
  Potency: inconclusive: 75.7 µM [inhibitor, single point]
[3]
  Potency: active: 75.7 µM
[4]
  Potency: inconclusive: 50.1 µM [activator, single point]
[5]
  Potency: inactive

## COc1cc(O)c(C(=O)/C=C/c2ccc(OC)c(O)c2)c(OC)c1
[6]
  Potency: inconclusive: 56.2 µM [inhibitor, partial curve, poor fit]
[3]
  Potency: inconclusive: 44.4 µM [inhibitor, partial curve]
[4]
  Potency: inconclusive: 50 µM [activator, partial curve, poor fit]
[5]
  Potency: inconclusive: 44.1 µM [inhibitor, partial curve]

## Cc1nc2ccccc2c2oc(C(=O)Nc3ccc4c(c3)OCCO4)cc12
[3]
  Potency: inconclusive: 47.8 µM [inhibitor, partial curve, poor fit]
[4]
  Potency: inconclusive: 100 µM [activator, partial curve, poor fit]
[7]
  activation: inconclusive: 23.4% [activator]

## COc1ccc(-c2nc3cnc(N4CCNCC4)nc3n(Cc3cccs3)c2=O)cc1
[8]
  activity change, negative = inhibition: inconclusive: 138% [activator]
[9]
  activity change, negative = inhibition: active: 182% [activator]
[10]
  activity, negative = inhibition: inconclusive: 238% [activator]
[11]
  Potency: inconclusive: 3.16 µM [fluorescent, side channel, partial curve]
[6]
  Potency: inconclusive: 39.8 µM [inhibitor, single point]
[3]
  Potency: inconclusive: 44.4 µM [inhibitor, partial curve]
[4]
  Potency: inconclusive: 50 µM [activator, partial curve]
[5]
  Potency: inconclusive: 87.9 µM [inhibitor, single point]

## COc1ccc(CNc2ccnc(-c3cccc(C#N)c3)n2)c(OC)c1
[8]
  activity change, negative = inhibition: inconclusive: -41.6% [inhibitor]
[9]
  activity change, negative = inhibition: inconclusive: -31% [inhibitor]
[10]
  activity, negative = inhibition: inconclusive: -44% [inhibitor]
[12]
  Potency: inconclusive: 3.98 µM [inhibitor, partial curve]
[11]
  activation: inactive: -5.53%
[13]
  Potency: inconclusive: 2.82 µM [falling, full curve]
[3]
  Potency: inconclusive: 35.2 µM [inhibitor, partial curve, poor fit]
[4]
  Potency: inactive
[5]
  Potency: inconclusive: 17.5 µM [inhibitor, full curve]

## Cc1ccc(N(Cc2cccs2)C(=O)c2ccccc2)cc1
[3]
  Potency: inactive
[4]
  Potency: inactive
[7]
  Potency: inconclusive: 35.5 µM [activator, partial curve, poor fit]

## Cc1cccc(Cn2nnc3c(=O)[nH]c(C4CCCN(C(=O)c5ccc(C(C)(C)C)cc5)C4)nc32)c1 (stereo not given)
[3]
  Potency: inconclusive: 75.7 µM [inhibitor, partial curve]
[4]
  Potency: inconclusive: 44.7 µM [activator, single point]
[7]
  Potency: inactive

## CC1CC(C)CN(C(=O)COC(=O)CNC(=O)C23CC4CC(CC(C4)C2)C3)C1 (stereo not given)
[3]
  Potency: inactive
[4]
  Potency: inactive
[7]
  Potency: inconclusive: 0.0224 µM [activator, full curve, poor fit]

## COc1cc(/C=N/NC(=O)c2cc(O)cc(O)c2)ccc1OC(=O)c1ccccc1
[14]
  Potency: inconclusive: 27.1 µM [inhibitor, partial curve]
[3]
  Potency: active: 33.8 µM
[4]
  Potency: inconclusive: 112 µM [activator, partial curve, poor fit]
[5]
  Potency: active: 3.38 µM
[7]
  Potency: inconclusive: 7.94 µM [activator, full curve, poor fit]

## Cc1ccc(NC(=O)N2CC3CCCN3c3ccccc32)cc1Cl (stereo not given)
[3]
  Potency: inactive
[4]
  Potency: inconclusive: 50.1 µM [activator, partial curve, poor fit]
[7]
  activation: inconclusive: 54.3% [activator]

## CCOc1ccc(S(=O)(=O)n2ccc(C)n2)c2ccccc12
[3]
  Potency: inactive
[4]
  Potency: inactive
[7]
  Potency: inconclusive: 0.01 µM [activator, full curve, poor fit]

## COC(=O)c1ccc(OCC2c3cc(OC)c(OC)cc3CCN2C(=O)c2ccc(OC)cc2)cc1 (stereo not given)
[3]
  activity, negative = inhibition: inconclusive: -39.1% [inhibitor]
[4]
  Potency: inconclusive: 44.7 µM [activator, single point]
[7]
  Potency: inconclusive: 25.1 µM [activator, partial curve, poor fit]

## O=C1CSC(c2ccc(Cl)cc2Cl)N1c1ccccn1 (stereo not given)
[3]
  Potency: inactive
[4]
  Potency: inconclusive: 89.1 µM [activator, partial curve, poor fit]
[7]
  Potency: inconclusive: 4.47 µM [activator, full curve]

## O=C(O)Cc1ccc(N=Nc2c(O)c(C(=O)O)cc3ccccc23)cc1
[14]
  Potency: inconclusive: 21.5 µM [inhibitor, partial curve]
[3]
  Potency: active: 33.8 µM
[4]
  Potency: inactive
[5]
  Potency: inconclusive: 47.8 µM [inhibitor, partial curve]
[7]
  Potency: inactive
